Results as given in the supplement of paper PMC12823440, “Inhibitors supercharge kinase turnover through native proteolytic circuits” (Nature, 2025).
Some of the results follow. Hit calls seldom repeat between salt and free forms of one compound.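 Kinases were expressed as nanoluciferase fusions in K562 cells and luminescence was read every 4 h between 2 and 18 h as percent of control, DMSO set to 100% and a positive control to 0%. A time point counts as decreased when the signal drops significantly (2 sigma). The hit call is the authors' own, does not follow from the count of time points alone, and its rule is not shown.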

Sequences of proteins named here, by UniProt entry; tags and fusion partners are left off. A change or cut given only in a name is not applied to a line headed by its entry.
UniProt Q05397, whole entry, looked up: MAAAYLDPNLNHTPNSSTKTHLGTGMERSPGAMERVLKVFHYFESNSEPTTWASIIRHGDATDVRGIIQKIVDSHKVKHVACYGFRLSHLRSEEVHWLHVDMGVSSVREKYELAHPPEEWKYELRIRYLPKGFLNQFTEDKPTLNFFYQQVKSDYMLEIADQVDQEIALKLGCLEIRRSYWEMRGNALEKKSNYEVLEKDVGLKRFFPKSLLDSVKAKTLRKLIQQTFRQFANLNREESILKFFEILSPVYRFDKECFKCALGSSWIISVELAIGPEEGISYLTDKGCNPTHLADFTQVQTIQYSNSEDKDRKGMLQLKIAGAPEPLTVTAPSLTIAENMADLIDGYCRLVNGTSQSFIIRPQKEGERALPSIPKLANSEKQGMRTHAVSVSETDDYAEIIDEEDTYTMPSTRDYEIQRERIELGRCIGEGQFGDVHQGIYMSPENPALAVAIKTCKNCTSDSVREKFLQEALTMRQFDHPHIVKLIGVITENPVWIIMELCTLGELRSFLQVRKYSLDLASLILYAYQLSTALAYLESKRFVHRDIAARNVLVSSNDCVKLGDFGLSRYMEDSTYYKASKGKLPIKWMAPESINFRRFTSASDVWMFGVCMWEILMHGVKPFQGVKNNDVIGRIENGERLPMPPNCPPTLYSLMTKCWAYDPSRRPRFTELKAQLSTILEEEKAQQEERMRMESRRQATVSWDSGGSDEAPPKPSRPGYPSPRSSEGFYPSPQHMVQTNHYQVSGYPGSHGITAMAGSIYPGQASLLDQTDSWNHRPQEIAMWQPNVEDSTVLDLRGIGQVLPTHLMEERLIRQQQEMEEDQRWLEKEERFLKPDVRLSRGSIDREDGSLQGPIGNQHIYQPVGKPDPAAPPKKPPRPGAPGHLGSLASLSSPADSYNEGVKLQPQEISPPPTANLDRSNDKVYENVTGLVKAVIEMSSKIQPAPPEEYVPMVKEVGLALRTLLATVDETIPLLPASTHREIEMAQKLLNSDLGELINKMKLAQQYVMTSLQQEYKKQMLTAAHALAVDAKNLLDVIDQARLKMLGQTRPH
UniProt Q14289, whole entry, looked up: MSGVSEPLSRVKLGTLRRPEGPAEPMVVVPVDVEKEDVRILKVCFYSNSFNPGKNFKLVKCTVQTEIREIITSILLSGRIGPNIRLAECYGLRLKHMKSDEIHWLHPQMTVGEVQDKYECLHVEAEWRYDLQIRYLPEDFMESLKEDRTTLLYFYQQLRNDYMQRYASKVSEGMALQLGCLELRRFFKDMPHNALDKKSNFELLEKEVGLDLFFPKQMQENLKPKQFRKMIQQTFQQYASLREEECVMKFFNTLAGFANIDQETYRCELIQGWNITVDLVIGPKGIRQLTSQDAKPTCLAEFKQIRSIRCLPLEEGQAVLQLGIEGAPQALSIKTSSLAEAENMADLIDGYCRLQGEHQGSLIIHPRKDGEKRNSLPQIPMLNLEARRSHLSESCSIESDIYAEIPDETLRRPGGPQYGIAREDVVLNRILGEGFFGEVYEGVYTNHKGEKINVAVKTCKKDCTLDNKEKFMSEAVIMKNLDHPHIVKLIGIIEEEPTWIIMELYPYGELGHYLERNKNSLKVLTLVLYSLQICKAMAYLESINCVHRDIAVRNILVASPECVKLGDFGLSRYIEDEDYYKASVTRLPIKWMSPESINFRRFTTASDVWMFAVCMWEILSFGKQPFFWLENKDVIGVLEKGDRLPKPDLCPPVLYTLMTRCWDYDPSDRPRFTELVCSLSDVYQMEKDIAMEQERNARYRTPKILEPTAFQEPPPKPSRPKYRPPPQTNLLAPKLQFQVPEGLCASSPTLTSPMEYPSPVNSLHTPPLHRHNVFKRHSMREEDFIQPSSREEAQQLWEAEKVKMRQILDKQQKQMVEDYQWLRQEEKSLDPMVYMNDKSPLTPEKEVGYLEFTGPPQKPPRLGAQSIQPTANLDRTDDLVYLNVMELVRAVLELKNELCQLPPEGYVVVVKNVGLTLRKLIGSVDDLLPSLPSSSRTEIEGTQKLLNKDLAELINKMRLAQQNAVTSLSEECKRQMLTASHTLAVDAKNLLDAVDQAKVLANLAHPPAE
UniProt P07949, whole entry, looked up: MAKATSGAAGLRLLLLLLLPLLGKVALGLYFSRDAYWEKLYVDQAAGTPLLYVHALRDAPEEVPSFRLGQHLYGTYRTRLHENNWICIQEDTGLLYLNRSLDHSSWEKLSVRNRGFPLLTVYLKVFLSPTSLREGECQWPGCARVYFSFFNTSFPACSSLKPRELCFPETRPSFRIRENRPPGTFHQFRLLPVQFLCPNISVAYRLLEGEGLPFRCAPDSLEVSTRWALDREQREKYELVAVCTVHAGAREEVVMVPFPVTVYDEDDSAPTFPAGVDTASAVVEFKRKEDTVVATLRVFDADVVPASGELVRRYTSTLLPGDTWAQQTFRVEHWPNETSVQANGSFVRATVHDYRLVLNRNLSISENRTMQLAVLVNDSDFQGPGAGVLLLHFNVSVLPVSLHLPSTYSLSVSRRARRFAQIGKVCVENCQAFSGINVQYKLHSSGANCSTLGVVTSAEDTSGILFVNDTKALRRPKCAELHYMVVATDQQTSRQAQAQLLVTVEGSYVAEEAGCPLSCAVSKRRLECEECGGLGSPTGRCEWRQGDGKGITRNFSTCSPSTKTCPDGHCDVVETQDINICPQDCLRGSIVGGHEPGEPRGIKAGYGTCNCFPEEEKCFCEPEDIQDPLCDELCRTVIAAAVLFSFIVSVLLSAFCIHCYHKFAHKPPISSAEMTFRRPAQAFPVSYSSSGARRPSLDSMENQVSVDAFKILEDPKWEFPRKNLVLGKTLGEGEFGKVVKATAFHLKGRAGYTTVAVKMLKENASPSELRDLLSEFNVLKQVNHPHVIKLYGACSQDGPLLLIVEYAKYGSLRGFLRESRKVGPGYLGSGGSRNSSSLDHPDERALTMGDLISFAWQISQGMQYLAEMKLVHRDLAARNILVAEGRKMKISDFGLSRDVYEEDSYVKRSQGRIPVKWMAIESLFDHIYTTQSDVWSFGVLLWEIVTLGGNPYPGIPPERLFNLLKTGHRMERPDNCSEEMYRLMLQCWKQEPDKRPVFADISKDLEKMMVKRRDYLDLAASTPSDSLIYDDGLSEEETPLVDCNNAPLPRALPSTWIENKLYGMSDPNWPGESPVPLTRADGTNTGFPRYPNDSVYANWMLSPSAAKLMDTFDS
UniProt P07949, whole entry M918T, looked up: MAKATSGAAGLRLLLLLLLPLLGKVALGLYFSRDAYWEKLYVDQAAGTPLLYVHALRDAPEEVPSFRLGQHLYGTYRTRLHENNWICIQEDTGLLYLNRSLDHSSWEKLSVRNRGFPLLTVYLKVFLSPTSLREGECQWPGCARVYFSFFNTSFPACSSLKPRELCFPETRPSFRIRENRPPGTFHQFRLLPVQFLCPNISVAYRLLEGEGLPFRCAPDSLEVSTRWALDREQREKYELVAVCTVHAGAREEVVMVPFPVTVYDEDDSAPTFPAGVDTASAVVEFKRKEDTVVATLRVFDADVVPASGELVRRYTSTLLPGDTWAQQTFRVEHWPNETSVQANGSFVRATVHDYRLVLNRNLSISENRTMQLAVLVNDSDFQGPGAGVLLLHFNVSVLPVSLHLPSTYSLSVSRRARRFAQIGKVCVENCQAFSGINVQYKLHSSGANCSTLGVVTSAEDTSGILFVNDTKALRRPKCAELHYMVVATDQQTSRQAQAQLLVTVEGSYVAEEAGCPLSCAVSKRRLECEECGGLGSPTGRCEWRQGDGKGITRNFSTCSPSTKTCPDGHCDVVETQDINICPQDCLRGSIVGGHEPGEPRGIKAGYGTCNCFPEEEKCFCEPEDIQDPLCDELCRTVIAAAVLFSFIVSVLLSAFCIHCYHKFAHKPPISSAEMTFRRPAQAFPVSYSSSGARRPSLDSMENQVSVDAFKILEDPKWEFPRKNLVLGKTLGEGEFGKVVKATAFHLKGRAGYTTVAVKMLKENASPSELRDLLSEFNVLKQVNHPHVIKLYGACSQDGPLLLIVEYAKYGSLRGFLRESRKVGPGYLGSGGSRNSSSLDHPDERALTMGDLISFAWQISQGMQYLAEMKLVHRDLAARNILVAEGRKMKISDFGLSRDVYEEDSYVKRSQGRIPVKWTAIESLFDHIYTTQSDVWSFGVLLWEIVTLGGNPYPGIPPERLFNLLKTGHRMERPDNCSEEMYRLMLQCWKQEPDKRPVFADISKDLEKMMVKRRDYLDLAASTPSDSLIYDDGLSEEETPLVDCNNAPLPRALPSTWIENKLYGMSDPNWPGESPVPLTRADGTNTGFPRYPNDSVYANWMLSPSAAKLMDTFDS
UniProt Q9BRS2: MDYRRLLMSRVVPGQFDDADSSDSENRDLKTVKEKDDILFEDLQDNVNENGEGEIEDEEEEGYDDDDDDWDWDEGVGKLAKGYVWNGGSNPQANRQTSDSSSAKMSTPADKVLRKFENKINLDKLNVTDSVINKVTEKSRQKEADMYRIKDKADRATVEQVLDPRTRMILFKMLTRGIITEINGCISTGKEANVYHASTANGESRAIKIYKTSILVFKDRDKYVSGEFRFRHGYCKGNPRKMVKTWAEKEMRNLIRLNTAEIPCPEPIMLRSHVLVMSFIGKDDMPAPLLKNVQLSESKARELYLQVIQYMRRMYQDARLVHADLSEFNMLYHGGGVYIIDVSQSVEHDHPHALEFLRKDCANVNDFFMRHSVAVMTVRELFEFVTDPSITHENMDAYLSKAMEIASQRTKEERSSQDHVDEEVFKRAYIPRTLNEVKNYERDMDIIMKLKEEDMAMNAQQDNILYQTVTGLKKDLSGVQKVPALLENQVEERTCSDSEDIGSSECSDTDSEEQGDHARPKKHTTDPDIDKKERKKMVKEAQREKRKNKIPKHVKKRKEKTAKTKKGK
UniProt Q13546: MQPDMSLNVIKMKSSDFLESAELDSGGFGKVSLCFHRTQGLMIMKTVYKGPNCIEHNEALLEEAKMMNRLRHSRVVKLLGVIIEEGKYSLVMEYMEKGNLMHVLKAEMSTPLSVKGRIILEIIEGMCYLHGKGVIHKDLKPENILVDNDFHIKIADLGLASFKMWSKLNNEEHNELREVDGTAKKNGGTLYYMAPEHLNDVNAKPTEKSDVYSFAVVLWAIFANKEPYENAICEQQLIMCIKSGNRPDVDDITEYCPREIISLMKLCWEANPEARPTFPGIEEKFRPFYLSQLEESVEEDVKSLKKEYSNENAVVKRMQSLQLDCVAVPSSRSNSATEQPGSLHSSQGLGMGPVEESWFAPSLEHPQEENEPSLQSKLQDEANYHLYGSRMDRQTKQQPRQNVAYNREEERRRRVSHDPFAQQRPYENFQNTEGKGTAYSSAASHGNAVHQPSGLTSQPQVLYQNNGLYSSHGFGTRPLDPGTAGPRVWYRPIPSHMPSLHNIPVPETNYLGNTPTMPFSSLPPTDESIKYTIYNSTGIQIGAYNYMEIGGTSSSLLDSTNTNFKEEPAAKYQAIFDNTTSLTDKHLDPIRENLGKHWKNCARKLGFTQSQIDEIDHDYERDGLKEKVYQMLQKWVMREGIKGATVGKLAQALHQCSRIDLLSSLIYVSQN

Assays:
Assay in all cases: number of time points (of 5) at which kinase-Nluc abundance scored as decreased, DMSO-normalised (count); higher = more persistent destabilization
Conditions in all cases: K562; 2-18 h
[1] = biological target: PRKCA (UniProt P17252)
[2] = biological target: PTK2 (UniProt Q05397)
[3] = biological target: PTK2B (UniProt Q14289)
[4] = biological target: RAF1 (UniProt P04049)
[5] = biological target: RAF1_S257L (clone: RAF1_mut) (UniProt P04049)
[6] = biological target: RET (UniProt P07949)
[7] = biological target: RET_M918T (clone: RET_mut) (UniProt P07949)
[8] = biological target: RIOK1 (UniProt Q9BRS2)
[9] = biological target: RIPK1 (UniProt Q13546)
[10] = biological target: RIPK2 (UniProt O43353)

Row | SMILES | number of time points [1] | number of time points [2] | number of time points [3] | number of time points [4] | number of time points [5] | number of time points [6] | number of time points [7] | number of time points [8] | number of time points [9] | number of time points [10]
1 | O=C(NCc1cccc(O)c1)c1cc2cc(F)ccc2[nH]1 (10 µM) | 0 | 0 | 0 | 0 | 0 | 0 | 0 | 0 | 0 | 0
2 | CCc1ccc(NC(=O)Nc2ccccc2)cc1 (10 µM) | 0 | 0 | 0 | 0 | 0 | 0 | 0 | 0 | 0 | 0
3 | C[C@@H]1CN(Cc2cn[nH]c2-c2ccc(C#N)cc2)CCN1c1ccc(C(F)(F)F)cn1 (2.5 µM) | 0 | 0 | 0 | 0 | 0 | 0 | 0 | 0 | 0 | 0
4 | CN1CCN(c2ccc(NC(=O)c3ccc(C#N)o3)c(N3CCCCC3)c2)CC1 (10 µM) | 0 | 1 | 0 | 0 | 0 | 0 | 0 | 0 | 0 | 0
5 | N#C/C(=C\c1ccc[nH]1)c1ccc(Cl)c(Cl)c1 (2.5 µM) | 0 | 0 | 0 | 0 | 0 | 0 | 0 | 0 | 0 | 0
6 | O=C(Nc1nccs1)C(c1cc(F)ccc1O)N1Cc2ccccc2C1=O (stereo not given) (10 µM) | 0 | 0 | 0 | 0 | 0 | 0 | 0 | 0 | 0 | 0
7 | NC(=O)c1nc(-c2c(F)cccc2Cl)oc1Nc1ccc(C(=O)N2CCOCC2)cc1 (10 µM) | 0 | 0 | 0 | 0 | 0 | 0 | 0 | 0 | 0 | 0
8 | O=C(N/N=C/c1ccc([N+](=O)[O-])o1)c1ccc(O)cc1 [Nifuroxazide] (10 µM) | 0 | 0 | 0 | 1 | 2 | 1 | 2 | 2 | 2 | 3
9 | CN(C)CCCNc1ccn2ncc(-c3ccc4c(c3)OCO4)c2n1 (10 µM) | 0 | 0 | 0 | 0 | 0 | 0 | 0 | 0 | 0 | 0
10 | O=c1ccc2cc(O)c(O)cc2o1 [Esculetin] (10 µM) | 0 | 0 | 0 | 0 | 0 | 0 | 0 | 0 | 0 | 0
11 | CN(c1ccc(C(F)(F)F)cc1)S(=O)(=O)c1ccc(C(=O)Nc2nc(-c3ccccn3)cs2)cc1 (2.5 µM) | 0 | 0 | 0 | 0 | 0 | 0 | 0 | 0 | 0 | 0
12 | CN1CCC(c2ccccc2CC(C)(C)Nc2nc(N3CCOCC3)nc(-n3c(S(C)(=O)=O)nc4ccccc43)n2)CC1 (10 µM) | 0 | 0 | 0 | 0 | 0 | 0 | 0 | 0 | 0 | 0
13 | C[C@@]12CCc3occc3[C@H]1CC[C@@]13C[C@@H](CC[C@H]12)[C@@](O)(CO)C3 [Cafestol] (10 µM) | 0 | 0 | 0 | 0 | 0 | 0 | 0 | 0 | 0 | 0
14 | NC(=O)c1ccc2nc(-c3ccc(C4(N)CCC4)cc3)c(-c3ccccc3)n2n1 (10 µM) | 0 | 0 | 0 | 0 | 0 | 0 | 0 | 0 | 0 | 0
15 | COc1cc(OC)c(/C=C/S(=O)(=O)Cc2ccc(OC)c(NCC(=O)O)c2)c(OC)c1 [Rigosertib (sodium)] (10 µM) | 0 | 0 | 0 | 2 | 1 | 0 | 0 | 0 | 0 | 1
16 | CCN1C(C)(C)CC(Oc2ccc(C(=O)Nc3ccc(NC(=O)Nc4cc(C(C)(C)C)on4)cc3)nc2)CC1(C)C (10 µM) | 0 | 0 | 0 | 0 | 0 | 0 | 0 | 0 | 0 | 0

Some of the entries so far, in markdown.

| Row | SMILES | number of time points [1] | number of time points [2] | number of time points [3] | number of time points [4] | number of time points [5] | number of time points [6] | number of time points [7] | number of time points [8] | number of time points [9] | number of time points [10] |
| --- | --- | --- | --- | --- | --- | --- | --- | --- | --- | --- | --- |
| 8 | O=C(N/N=C/c1ccc([N+](=O)[O-])o1)c1ccc(O)cc1 [Nifuroxazide] (10 µM) | 0 | 0 | 0 | 1 | 2 | 1 | 2 | 2 | 2 | 3 |
| 9 | CN(C)CCCNc1ccn2ncc(-c3ccc4c(c3)OCO4)c2n1 (10 µM) | 0 | 0 | 0 | 0 | 0 | 0 | 0 | 0 | 0 | 0 |
| 10 | O=c1ccc2cc(O)c(O)cc2o1 [Esculetin] (10 µM) | 0 | 0 | 0 | 0 | 0 | 0 | 0 | 0 | 0 | 0 |
